These are yes or no findings as the source states them, for the method shown. In cells and extracts the contact can be indirect. Some binding calls cover weakened binding; strength is not graded here.

Amino acid sequences for entries named in this document (tags omitted). Residues count along the entry.
UniProt P43220, residues 24-463: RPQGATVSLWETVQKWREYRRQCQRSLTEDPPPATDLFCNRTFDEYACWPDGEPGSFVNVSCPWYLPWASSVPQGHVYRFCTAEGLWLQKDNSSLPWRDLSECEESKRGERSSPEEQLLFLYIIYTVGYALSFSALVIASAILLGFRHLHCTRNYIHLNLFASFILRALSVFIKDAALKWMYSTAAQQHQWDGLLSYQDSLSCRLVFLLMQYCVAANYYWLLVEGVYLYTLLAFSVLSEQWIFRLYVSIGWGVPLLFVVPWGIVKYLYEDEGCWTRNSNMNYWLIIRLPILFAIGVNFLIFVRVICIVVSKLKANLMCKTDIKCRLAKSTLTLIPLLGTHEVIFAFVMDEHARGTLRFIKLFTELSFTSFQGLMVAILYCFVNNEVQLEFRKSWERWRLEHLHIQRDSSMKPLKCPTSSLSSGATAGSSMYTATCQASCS
UniProt P32121: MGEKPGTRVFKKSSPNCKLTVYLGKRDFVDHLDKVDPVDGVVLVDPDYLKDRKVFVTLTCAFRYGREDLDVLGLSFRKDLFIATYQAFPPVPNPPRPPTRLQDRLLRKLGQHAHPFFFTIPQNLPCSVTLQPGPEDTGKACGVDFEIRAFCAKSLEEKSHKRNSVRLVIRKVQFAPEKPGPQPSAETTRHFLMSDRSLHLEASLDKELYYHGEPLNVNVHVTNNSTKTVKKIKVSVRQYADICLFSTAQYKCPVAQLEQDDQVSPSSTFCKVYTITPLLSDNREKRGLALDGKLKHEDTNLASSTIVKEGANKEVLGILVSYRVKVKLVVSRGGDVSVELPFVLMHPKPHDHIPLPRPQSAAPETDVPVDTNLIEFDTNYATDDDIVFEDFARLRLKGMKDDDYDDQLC

In this assay the target is GLP-1R in PathHunter CHO-K1-βarr2-EA-GLP-1R cells (UniProt P43220). In words: split reporter; PathHunter CHO-K1-βarr2-EA-GLP-1R cells stimulated with agonist (SM102 or Semaglutide) for 30 min at 37°C in Ham's F12 medium without FBS; lysed with PathHunter detection reagents, luminescence read.

With “β-arrestin-2 in PathHunter CHO-K1-βarr2-EA-GLP-1R cells (from UniProt P32121 1-409)”, the binding result is “binds”.

(Values after publication PMC8975272, “Novel glucagon-like peptide-1 analogue exhibits potency-driven G-protein biased agonism with promising effects on diabetes and diabetic dry eye syndrome” (Bioengineered, 2022).)
